# Experimental data: patent US20230250160A1 (HOBER BIOTECH, published 2023)
# The chains behind the UniProt entries cited, without tags or fusion partners. Where a name states a change or a piece, a line headed by the entry shows the natural chain unless it says otherwise.
# UniProt P01308: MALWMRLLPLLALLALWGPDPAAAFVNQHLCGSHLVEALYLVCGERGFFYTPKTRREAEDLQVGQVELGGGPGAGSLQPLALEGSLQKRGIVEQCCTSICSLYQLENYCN
# These are yes or no findings as the source states them, for the method shown. Binding can be weak; no strength is given.
# Assays:
# [1] = biological target: T1, Human recombinant Insulin (human, UniProt P01308 25-54; P01308 90-110, limits assumed); experiment: SPR capture assay, ADAPT variant captured on immobilised HSA, then 500 nM insulin injected
# T1 construct: also called bInsulin
# [2] = biological target: T1, Human recombinant Insulin; experiment: phage display selection after two panning rounds; simultaneous binding of Insulin and albumin
# [3] = biological target: T1, Human recombinant Insulin; experiment: SPR (Biacore), ADAPT preincubated with a molar excess of HSA, injected at 31.25-500 nM over immobilised insulin
# [4] = biological target: T1, Human recombinant Insulin; experiment: SPR; also still binds insulin after incubation with saturating HSA
# [5] = biological target: T1, Human recombinant Insulin; experiment: SPR (Biacore), ADAPT injected alone at 31.25-500 nM over immobilised insulin
# [6] = biological target: T1, Human recombinant Insulin; experiment: SPR sensorgrams, FIG. 2A; also after saturation with HSA, FIG. 2B
# [7] = biological target: T1, Human recombinant Insulin; experiment: SPR capture assay, ADAPT captured on HSA, target injected
# [8] = biological target: T1, Human recombinant Insulin; experiment: size-exclusion chromatography of HSA, ADAPT and insulin mixed 1:1:1
# [9] = biological target: T1, Human recombinant Insulin; experiment: analytical SEC (Superdex 75 5/150), samples mixed 1:1 or 1:1:1 and injected, overlaid with the single partners
# [10] = biological target: T1, Human recombinant Insulin; experiment: SPR multi-cycle analysis
binding [1],binding [2],binding [3],binding [4],binding [5],binding [6],binding [7],binding [8],binding [9],binding [10],Binder
binds,binds,binds,binds,binds,binds,binds,binds,binds,,"LAIAKAYAQYELSFYGVSDFYRELIVKAKTVEGVEALKLHILAALP (designed binder, also called INS_02) [ADAPT variant Insulin_02]"
binds,binds,,,,,binds,,,binds,"LAVAKAYAKYELAFYGVSDFYNELILKAKTVEGVEALKLHILAALP (designed binder, also called INS_03) [ADAPT variant Insulin_03]"
binds,binds,,,,,binds,,,binds,"LVIAKAYAQYELAFYGVSDFYSDLIKKAKTVEGVEALKLHILAALP (designed binder, also called INS_01) [ADAPT variant Insulin_01]"
